# In paper PMC5996148:
# This is one part of the list. For some of these results: The source does not settle which construct or isoform was used.
# What was measured:
# Test in all cases: protein microarray (ProtoArray v5.0), streptavidin-Alexa Fluor 647
# Settings in all cases: 3'-biotin; 20 mM Tris (pH 7.5), 5 mM MgCl2, 100 mM KCl, 0.1% Tween-20, A/T-rich and random oligonucleotide blockers; temperature not stated; high values mean tight binding
# [1] = tested on: WDR34 (human)
# [2] = tested on: WDR4 (human)
# [3] = tested on: WFDC6 (human)
# [4] = biological target: T1, WHSC1 (UniProt O96028)
# T1 sequence: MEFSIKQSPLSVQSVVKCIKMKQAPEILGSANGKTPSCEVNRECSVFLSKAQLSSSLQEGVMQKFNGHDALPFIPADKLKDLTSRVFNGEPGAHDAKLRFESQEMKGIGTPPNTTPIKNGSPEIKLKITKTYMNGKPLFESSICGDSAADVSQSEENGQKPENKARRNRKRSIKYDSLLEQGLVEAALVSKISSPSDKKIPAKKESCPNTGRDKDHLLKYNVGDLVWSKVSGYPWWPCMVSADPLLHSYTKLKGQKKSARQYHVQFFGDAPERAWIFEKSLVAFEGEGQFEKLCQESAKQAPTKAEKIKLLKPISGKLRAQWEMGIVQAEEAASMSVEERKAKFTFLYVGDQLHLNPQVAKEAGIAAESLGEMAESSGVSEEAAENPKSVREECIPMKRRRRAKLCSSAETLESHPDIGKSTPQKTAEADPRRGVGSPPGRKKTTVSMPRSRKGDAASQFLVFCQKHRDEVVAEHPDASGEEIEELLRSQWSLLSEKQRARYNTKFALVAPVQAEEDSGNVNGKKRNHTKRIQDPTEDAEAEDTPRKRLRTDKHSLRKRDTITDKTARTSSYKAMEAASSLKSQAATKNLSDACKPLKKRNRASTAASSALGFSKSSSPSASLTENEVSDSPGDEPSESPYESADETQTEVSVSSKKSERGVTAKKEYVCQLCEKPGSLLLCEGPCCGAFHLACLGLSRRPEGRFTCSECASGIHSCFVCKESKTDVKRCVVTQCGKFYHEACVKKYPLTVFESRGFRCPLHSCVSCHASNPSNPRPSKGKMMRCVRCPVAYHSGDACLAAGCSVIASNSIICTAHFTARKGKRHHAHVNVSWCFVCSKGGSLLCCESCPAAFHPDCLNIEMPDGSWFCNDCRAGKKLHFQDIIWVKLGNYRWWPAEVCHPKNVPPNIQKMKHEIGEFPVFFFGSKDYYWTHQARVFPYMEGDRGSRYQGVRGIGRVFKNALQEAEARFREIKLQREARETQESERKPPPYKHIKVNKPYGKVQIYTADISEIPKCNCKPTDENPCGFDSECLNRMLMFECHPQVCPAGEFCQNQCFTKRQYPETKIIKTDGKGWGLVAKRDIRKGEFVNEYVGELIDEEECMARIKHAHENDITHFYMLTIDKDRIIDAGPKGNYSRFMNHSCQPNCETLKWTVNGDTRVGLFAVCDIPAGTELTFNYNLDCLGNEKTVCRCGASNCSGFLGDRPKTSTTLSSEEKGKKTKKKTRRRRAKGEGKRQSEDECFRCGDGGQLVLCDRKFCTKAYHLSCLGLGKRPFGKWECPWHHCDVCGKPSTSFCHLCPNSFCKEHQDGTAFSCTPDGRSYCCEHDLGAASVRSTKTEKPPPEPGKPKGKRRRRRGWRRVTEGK
# [5] = tested on: WTAP (human)
# [6] = tested on: Wilms tumor-associated protein (human)
# [7] = tested on: YKT6 (human)
# [8] = tested on: YSK4 (human)
# [9] = tested on: ZAP70 (human)
# [10] = tested on: ZBED2 (human)
sequence,measurement,setting,value
GGGGACAGGGGTATGGGGAGGGG [G4-3 biotinylated (CtG)],binding signal,[1],-0.333 z-score
same,binding signal,[2],-0.326 z-score
same,binding signal,[3],-0.338 z-score
same,binding signal,[4],3.27 z-score
same,binding signal,[5],-0.328 z-score
same,binding signal,[6],4.3 z-score
same,binding signal,[7],-0.337 z-score
same,binding signal,[8],-0.327 z-score
same,binding signal,[9],-0.295 z-score
same,binding signal,[10],-0.32 z-score
